Measurements as given in the supplement of paper PMC3334620.
Whole data set: some 33,000 sequences, median “E-score (-0.5 to 0.5)” near -8e-05, cut for the highest 2% near 0.23. The list shows a part of the results.

These sequences were tested against T1, Nrg2 (UniProt P38082) (assay: PBM E-score (8-mer binding enrichment) (E-score (-0.5 to 0.5)); higher = stronger / more preferred TF binding). Conditions: protein concentration: 100 nM; construct: GST-full length.
T1 sequence: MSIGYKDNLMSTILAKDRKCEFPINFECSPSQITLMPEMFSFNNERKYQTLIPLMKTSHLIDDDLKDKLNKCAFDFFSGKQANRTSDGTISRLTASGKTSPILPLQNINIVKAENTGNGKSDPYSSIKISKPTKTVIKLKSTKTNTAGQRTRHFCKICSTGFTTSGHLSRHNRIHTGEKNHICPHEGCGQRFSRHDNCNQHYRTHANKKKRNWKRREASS
Protocol: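 Universal 'all 10-mer' protein binding microarrays (Agilent AMADID 015681) probed with GST-tagged S. cerevisiae TFs (full-length or DBD) made by in vitro transcription/translation (PURExpress), about 100-200 nM. Bound TF was detected with fluorescent anti-GST. Each ungapped 8-mer (which stands for itself and its reverse complement) is scored by the PBM enrichment score (E-score), a modified Wilcoxon-Mann-Whitney statistic from -0.5 to +0.5, computed with the Universal PBM Analysis Suite. Scale: above 0.35 generally sequence-specific binding.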

Row | Sequence | PBM E-score
1 | CGCGCTCA | 0.152
2 | CTATTTCA | 0.164
3 | CTGGGCTA | -0.0565
4 | AAATCATA | 0.21
5 | AGCGACGG | 0.059
6 | ACGAGCAG | 0.0594
7 | CGCCAGGA | -0.025
8 | ACATTGGC | 0.0134
9 | CATCTTCC | 0.00523
10 | ACCGTCGT | 0.0641
11 | CACCGGAC | -0.183
12 | GGGCGAAC | 0.215
13 | CGGGCGAA | 0.1
14 | GTCGGTTA | 0.055
15 | CGGAGAGA | 0.00504
16 | TAGCGATA | 0.107
17 | AGGCGAAA | -0.0977
18 | CAGGATGG | -0.137
19 | CAGGTTAC | -0.0498
20 | AACCATGA | 0.122
21 | ATCCAACG | -0.165
22 | AATGCATT | 0.154

Row | Sequence | PBM E-score
23 | ACCCAGTG | -0.0368
24 | AAGGAAAC | -0.128
25 | GAATCCAA | 0.0554
26 | GACGGGAC | -0.222
27 | ACACACTA | 0.106
28 | ATGTCCGA | -0.0732
29 | AATGGGGC | -0.1
30 | AGTGGACC | 0.00243
31 | CTGTAACC | 0.108
32 | CAGGGATG | 0.211
33 | CATTAAAC | 0.0682
34 | CGATTTAA | 0.0703
35 | GCTCTCCC | -0.163
36 | AAAATATT | 0.125
37 | CCGGGAAA | -0.0767
38 | AAAGCATG | -0.0309
39 | ATTATGCA | -0.00258
40 | GGGAGGGA | -0.00072
41 | GATTTGGA | -0.0311
42 | CATAAATC | 0.0728
43 | GAGTAACA | 0.161
44 | ATCTTCTA | -0.0225

Copied from above: entries 26 to 28
Row | Sequence | PBM E-score
26 | GACGGGAC | -0.222
27 | ACACACTA | 0.106
28 | ATGTCCGA | -0.0732

(cont.)

Row | Sequence | PBM E-score
45 | AAGGGTCA | 0.149
46 | CACCCTGC | 0.191
47 | ACGGAAGC | -0.0173
48 | TACCTCAA | -0.0423
49 | GCATTCCC | -0.0654
50 | CGCCAGCG | -0.125
51 | AAGGTTTA | -0.24
52 | ACATGATC | 0.0795
53 | TTGTGAAA | 0.058
54 | GAATTGCC | -0.0288
55 | ATATTCCC | 0.206
56 | ATCAACTA | 0.201
57 | GCAAAGGA | 0.077
58 | ACATACCC | 0.153
59 | CAAGAGGA | -0.0666
60 | GACCAACC | -0.0119
61 | AAAGCAGA | 0.136
62 | AAAAATTA | 0.149
63 | CTGTCACA | -0.0114
64 | GAAAGCCA | -0.0951
65 | ATGCGTGC | 0.00553
66 | GAATGTCC | 0.0313

Row | Sequence | PBM E-score
67 | TAGCTGGA | -0.22
68 | AACTTTAA | 0.125
69 | ATGAAGAC | -0.0564
70 | AAGGATCA | 0.0364
71 | CTCGTGGA | 0.00055
72 | GAGCGTGA | -0.143
73 | ATAAGGCA | -0.0337
74 | CGTACGCC | -0.146
75 | GGGAGCTA | -0.162
76 | ATGAGTTG | 0.138
77 | ATGTAGAA | 0.00739
78 | CACAGTTA | 0.187
79 | CAATCAAG | -0.0232
80 | AAATCGCC | 0.00869
81 | CGAAAAGA | 0.199
82 | ACTAGGCG | 0.11
83 | CGAATCGA | 0.211
84 | TGCAAACA | -0.146
85 | CGTTGCTC | 0.105
86 | ATCCCGCG | 0.294
